Measured values: PubChem BioAssay AID624297 (National Center for Advancing Translational Sciences (NCATS), 2012)
Out of some 340,000 compounds screened, about 6,200 (1.8%) were called active. This list was built around the results that the source calls inconclusive (neither active nor inactive); the mix of calls is not that of the screen. Calls follow the shape of the dose curve; as a rule, active = well fitted activation curve with a large enough effect; inconclusive = small, poorly fitted or top-dose-only effect; inactive = no such curve, though single readings can be large or run the other way. Potencies of inconclusive entries are doubtful fits and often do not repeat.

Assay: A quantitative high throughput screen for small molecules that induce DNA re-replication in SW480 colon adenocarcinoma cells. Also: nearly all actives have a fitted effect of over 55% in size. As to re-replication activation: % of control where 0% means no effect.
Conditions: Hoechst DNA content imaging, 48 h; re-replication activation: at 46.1 µM (top of the series) unless noted
Method in brief: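 Readout is total intensity of Hoechst-stained nuclei, excited at 405 nm and collected at 500-530 nm. Compound treatment lasted 48 hr at 37 C in 5% CO2 before staining.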
Potency is read from the fitted curve at half-maximal effect.

| SMILES | re-replication activation | Potency |
| --- | --- | --- |
| Cc1nn(C)cc1C(C)NC(=O)c1cc(COc2cccc3cnccc23)on1 (configuration not stated) | inactive: -1.93% |  |
| Cc1nn(-c2ccc3ccccc3c2)c(=O)c2ccccc12 | inactive: 10.8% |  |
| CC(C)CC(=O)Nc1ccc2c(c1)OCO2 | inactive: 2.88% |  |
| O=[N+]([O-])c1ccccc1/C=C/c1ccc2ccccc2n1 | inactive: 14% |  |
| c1ccc(CCc2ccccc2-c2nc(-c3cccnc3)no2)cc1 |  | inconclusive: 0.184 µM [activator, full curve, poor fit] |
| CC(Oc1cc2oc(=O)c3c(c2cc1Cl)CCC3)C(=O)NC1CC(C)(C)NC(C)(C)C1 (configuration not stated) |  | inconclusive: 29.1 µM [activator, single point] |
| NC(=O)COc1ccc2oc(-c3ccccc3)cc(=O)c2c1 | inactive: -23.9% |  |
| O=C(OCC(=O)N1N=C(c2ccc(Cl)cc2)CC1c1ccco1)c1cncc(Br)c1 (configuration not stated) |  | inconclusive: 23.1 µM [activator, partial curve, poor fit] |
| O=C(Cn1nnc(-c2ccccc2)n1)Nc1cccc(S(=O)(=O)N2CCCC2)c1 | inactive: -0.533% |  |
| COc1ccc(C)cc1NS(=O)(=O)c1ccc2c(c1)N(C)CCO2 | inactive: -6.36% |  |
| CN(C(=O)/C=C/c1ccc([N+](=O)[O-])s1)c1ccccc1 |  | inconclusive: 4.61 µM [activator, partial curve, poor fit] |
| COc1ccc(CCNC(=O)COC(=O)c2cc(Cl)nc(Cl)c2)cc1 | inactive: -9.52% |  |
| O=C(Nc1ccncc1)C1CCCN(S(=O)(=O)c2cccc3cccnc23)C1 (configuration not stated) |  | active: 2.06 µM |
| Cc1ccc(NC(=O)c2ccco2)cc1C | inactive: -31.9% |  |
| C=CCN1C=CC(=O)CC1 |  | inconclusive: 20.6 µM [activator, single point] |
| COc1ccc(CNC(=O)c2csc(Cc3ccc(OC)cc3)n2)cc1 |  | inconclusive: 29.1 µM [activator, single point] |
| CCCc1cc(=O)oc2c(CN3CCN(C)CC3)c(O)ccc12 | inactive: -8.8% |  |
| COc1ccccc1NC(=O)CCC(=O)c1ccc(-c2ccccc2)cc1 |  | inconclusive: 0.259 µM [activator, full curve, poor fit] |
| O=C(c1ccccc1)N(Cc1cccs1)C1CCS(=O)(=O)C1 (configuration not stated) |  | inconclusive: 25.9 µM [activator, single point] |
| Cc1ccc(/C=N/Nc2ccc(C(=O)O)cc2)o1 |  | inconclusive: 1.16 µM [activator, single point] |
| CN(C)S(=O)(=O)n1cc(/C=C(\NC(=O)c2ccccc2Cl)C(=O)NCCN2CCOCC2)c2ccccc21 |  | inconclusive: 1.84 µM [activator, single point] |
| Cn1c(CSc2ccccc2)c(C#N)c2ccccc21 | inactive: -3.69% |  |

Structural class, the entries above with a halogen (four)

| SMILES | re-replication activation | Potency |
| --- | --- | --- |
| CC(Oc1cc2oc(=O)c3c(c2cc1Cl)CCC3)C(=O)NC1CC(C)(C)NC(C)(C)C1 (configuration not stated) |  | inconclusive: 29.1 µM [activator, single point] |
| O=C(OCC(=O)N1N=C(c2ccc(Cl)cc2)CC1c1ccco1)c1cncc(Br)c1 (configuration not stated) |  | inconclusive: 23.1 µM [activator, partial curve, poor fit] |
| COc1ccc(CCNC(=O)COC(=O)c2cc(Cl)nc(Cl)c2)cc1 | inactive: -9.52% |  |
| CN(C)S(=O)(=O)n1cc(/C=C(\NC(=O)c2ccccc2Cl)C(=O)NCCN2CCOCC2)c2ccccc21 |  | inconclusive: 1.84 µM [activator, single point] |
